# Results as given in the supplement of paper PMC8728848.
# The other results are listed elsewhere or left out.
# B1: Awp3 (Candida glabrata), B4UN32 (protein)
# chain: MISFVTLLAILGLLSISWADQTVRSVAGDQRVTDPVIVGDNSILDYYGGSNYDFSNNFEIGRGTLYIGKESYFSSFQSAPTDVPNSFHLLIKNTNNLQNNGQFIIENIKRHANQCSNSSIQVFPINFQNDGEFEIISGGVEGRCCLPTSVIAPQNFLNNGKFYYKVLTDTGSIYSGSCMQNVDIGASTTTTVNNNLWEFTGSINAQINGAVSGAAQINLDGSNMFVNANTFSGQVVNLINGGSFLQTSDPLSNIVVINGLGTSDTGVTSIAVKGKGKSFTYNPSSGIVKLTTVEGKTYAYQIGCGYNTKKFITNNDSGASYESADNFFVLTYSEPYSPQTCQLENSSIFSSNFISTSTSSSSSSSSASSLPSSMSSSLPSSLSSSLSSSLSSSMSSSMSSLFIIPPPYTTTRSSGSSIIDTEIVSFYSTTDSPGHTITGTTTTTLYGPHTHSSVSTPSSSSESSTTSNSSIESSSLPHTSVSSTPESSITPSSNTISSSPTSDFSSVQSSSIMESSSVVASSSVINSSSIVDSSSSSASSLPSSMSSSLSSSMSSSLPSSMSSSLSSSLSSSLSSSMSSSMSSLFIIPPPYTTTRSSGSSIIDTEIVSFYSTTDSPGHTITGTTTTTLYGPHTHSSVSTPSSSSESSTTSNSSIESSSLPHTSVSSTPESSITPSSNTISSSPTSDFSSVQSSSIMESSSVVASSSVINSSSIVDSSSSSASSLPSSMPSSLPSSMSSSLSSSMSSSLSSSLSSSLSSSMSSSMSSLFIIPPPYTTTRSSGSSIIDTEIVSFYSTTDSPGHTITGTTTTTLYGPHTHSSVSTPSSSSESSTTSNSSIESSSLPHTSVSSTPESSITPSSNTISSSPTSDFSSVQSSSIMESSSVVASSSATQSSSVINSSSIVDSSSSSASSLPSSMPSSLPSSLSSSLSSSLSSSMSSSMSSLFIIPPPYTTTRSSGSSIIDTEIVSFYSTTDSPGHTITGTTTTTLYESSIYSSSSSTIQESELSNTSRTTMTSNSSVSISSTSSRSSFSNTKSSTIVISQSASLPDSKTDIILSTSSNIGYSSRSLLSDLGTSISDSDIHHSVLHSTESYSSNESGTNPFTSIASLSNFIPESSSHTSTALGSENSVISSDILTTMSHPVATNSGDKPTTPKRSEQVSTTMTSSGPTPDTSSFDTDGMSAYSRPEFTTNSLEVNKSSTSQLGNNKQTFSNLQLESTRPHSENEVDNNTRLLQSIQQSSTYGTNNVNPLSPTGSISIPLTEDGQGDNNNWNSPATNDLCTQISFNLTATTITVTDRITITDSIHDISSEVITSYIYQTIVDQKTVTQTVDGKSLANKMSSIPKPSSRSLIQPQPPVAIELQEGAASTSRVSLVSLFISIILVLL
# What was measured:
# Assay in all cases: glycan array binding signal (z-score within array); higher = stronger binding
# Conditions in all cases: glycan notation: IUPAC condensed, linker removed
# [1] = molecular target: Gal(a1-3)Gal(b1-4)GlcNAc(b1-2)Man
# In short: (§1)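 Glycan array binding is given as a within-array Z-score, which can be read as non-binding when negative. The arrays, 3228 of them, came from the Consortium for Functional Glycomics database and were retained only where the protein sequence was available. Z-scores were averaged across arrays of the same protein sequence at different concentrations or buffers and across linkers.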
# [2] = molecular target: Gal(a1-3)Gal(b1-4)GlcNAc(b1-2)Man(a1-3)[Gal(a1-3)Gal(b1-4)GlcNAc(b1-2)Man(a1-6)]Man(b1-4)GlcNAc(b1-4)GlcNAc
# In short: as §1
# [3] = molecular target: Gal(a1-3)Gal(b1-4)GlcNAc(b1-3)GalNAc
# In short: as §1
# [4] = molecular target: Gal(a1-3)Gal(b1-4)GlcNAc(b1-6)GalNAc
# In short: as §1
# [5] = molecular target: Gal(a1-3)Gal(b1-4)[Fuc(a1-3)]GlcNAc
# In short: as §1
# [6] = molecular target: Gal(a1-3)Gal(b1-4)[Fuc(a1-3)]GlcNAc(b1-2)Man(a1-3)[Gal(a1-3)Gal(b1-4)[Fuc(a1-3)]GlcNAc(b1-2)Man(a1-6)]Man(b1-4)GlcNAc(b1-4)GlcNAc
# In short: as §1
# Gal(a1-3)GalNAc = molecular target: Gal(a1-3)GalNAc
# In short: as §1
# [7] = molecular target: Gal(a1-3)[Gal(a1-4)]Gal(b1-4)GlcNAc
# In short: as §1
# [8] = molecular target: Gal(a1-4)Gal(b1-3)GlcNAc(b1-2)Man(a1-3)[Gal(a1-4)Gal(b1-3)GlcNAc(b1-2)Man(a1-6)]Man(b1-4)GlcNAc(b1-4)GlcNAc
# In short: as §1
# Gal(a1-4)Gal(b1-4)Glc = molecular target: Gal(a1-4)Gal(b1-4)Glc
# In short: as §1
# Gal(a1-4)Gal(b1-4)GlcNAc = molecular target: Gal(a1-4)Gal(b1-4)GlcNAc
# In short: as §1
# [9] = molecular target: Gal(a1-4)Gal(b1-4)GlcNAc(b1-2)Man(a1-3)[Gal(a1-4)Gal(b1-4)GlcNAc(b1-2)Man(a1-6)]Man(b1-4)GlcNAc(b1-4)GlcNAc
# In short: as §1
# [10] = molecular target: Gal(a1-4)Gal(b1-4)GlcNAc(b1-3)Gal(b1-4)Glc
# In short: as §1
# Gal(a1-4)GlcNAc = molecular target: Gal(a1-4)GlcNAc
# In short: as §1
# Gal(a1-6)Glc = molecular target: Gal(a1-6)Glc
# In short: as §1
# Gal(b1-2)Gal = molecular target: Gal(b1-2)Gal
# In short: as §1
# Gal(b1-3)Gal = molecular target: Gal(b1-3)Gal
# In short: as §1
# Gal(b1-3)Gal(b1-4)GlcNAc = molecular target: Gal(b1-3)Gal(b1-4)GlcNAc
# In short: as §1
# Gal(b1-3)GalNAc = molecular target: Gal(b1-3)GalNAc
# In short: as §1
# [11] = molecular target: Gal(b1-3)GalNAc(a1-3)[Fuc(a1-2)]Gal(b1-4)Glc
# In short: as §1
# [12] = molecular target: Gal(b1-3)GalNAc(a1-3)[Fuc(a1-2)]Gal(b1-4)GlcNAc
# In short: as §1
# Gal(b1-3)GalNAc(b1-3)Gal = molecular target: Gal(b1-3)GalNAc(b1-3)Gal
# In short: as §1
# [13] = molecular target: Gal(b1-3)GalNAc(b1-3)Gal(a1-4)Gal(b1-4)Glc
# In short: as §1
# [14] = molecular target: Gal(b1-3)GalNAc(b1-4)Gal(b1-4)Glc
# In short: as §1
# [15] = molecular target: Gal(b1-3)GalNAc(b1-4)[Neu5Ac(a2-3)]Gal(b1-4)Glc
# In short: as §1
# Gal(b1-3)GlcNAc = molecular target: Gal(b1-3)GlcNAc
# In short: as §1
# [16] = molecular target: Gal(b1-3)GlcNAc(a1-3)Gal(b1-4)GlcNAc
# In short: as §1
# [17] = molecular target: Gal(b1-3)GlcNAc(a1-6)Gal(b1-4)GlcNAc
# In short: as §1
# Gal(b1-3)GlcNAc(b1-2)Man = molecular target: Gal(b1-3)GlcNAc(b1-2)Man
# In short: as §1
# [18] = molecular target: Gal(b1-3)GlcNAc(b1-2)Man(a1-3)[Gal(b1-3)GlcNAc(b1-2)Man(a1-6)]Man(b1-4)GlcNAc(b1-4)GlcNAc
# In short: as §1
binder,measurement,setting,value
B1,glycan array binding signal (z-score),[1],-1.08
same,glycan array binding signal (z-score),[2],-0.744
same,glycan array binding signal (z-score),[3],-0.461
same,glycan array binding signal (z-score),[4],-0.928
same,glycan array binding signal (z-score),[5],-0.54
same,glycan array binding signal (z-score),[6],-0.419
same,glycan array binding signal (z-score),Gal(a1-3)GalNAc,1.46
same,glycan array binding signal (z-score),[7],-0.711
same,glycan array binding signal (z-score),[8],-0.156
same,glycan array binding signal (z-score),Gal(a1-4)Gal(b1-4)Glc,0.805
same,glycan array binding signal (z-score),Gal(a1-4)Gal(b1-4)GlcNAc,-0.218
same,glycan array binding signal (z-score),[9],1.22
same,glycan array binding signal (z-score),[10],0.68
same,glycan array binding signal (z-score),Gal(a1-4)GlcNAc,2.25
same,glycan array binding signal (z-score),Gal(a1-6)Glc,-0.454
same,glycan array binding signal (z-score),Gal(b1-2)Gal,-0.471
same,glycan array binding signal (z-score),Gal(b1-3)Gal,-0.155
same,glycan array binding signal (z-score),Gal(b1-3)Gal(b1-4)GlcNAc,-0.446
same,glycan array binding signal (z-score),Gal(b1-3)GalNAc,0.079
same,glycan array binding signal (z-score),[11],0.765
same,glycan array binding signal (z-score),[12],-1.14
same,glycan array binding signal (z-score),Gal(b1-3)GalNAc(b1-3)Gal,-0.738
same,glycan array binding signal (z-score),[13],1.46
same,glycan array binding signal (z-score),[14],-0.005
same,glycan array binding signal (z-score),[15],-0.191
same,glycan array binding signal (z-score),Gal(b1-3)GlcNAc,-0.878
same,glycan array binding signal (z-score),[16],-0.426
same,glycan array binding signal (z-score),[17],0.259
same,glycan array binding signal (z-score),Gal(b1-3)GlcNAc(b1-2)Man,0.418
same,glycan array binding signal (z-score),[18],2.55

# A second format for part of the listing above:
binder | measurement | setting | value
B1 | glycan array binding signal (z-score) | [13] | 1.46
same | glycan array binding signal (z-score) | [14] | -0.005
same | glycan array binding signal (z-score) | [15] | -0.191
same | glycan array binding signal (z-score) | Gal(b1-3)GlcNAc | -0.878
same | glycan array binding signal (z-score) | [16] | -0.426
